{"source": "paper PMC6072106", "target": "T1, Fis (UniProt Q88DK4)", "T1 sequence (looked up, limits assumed)": "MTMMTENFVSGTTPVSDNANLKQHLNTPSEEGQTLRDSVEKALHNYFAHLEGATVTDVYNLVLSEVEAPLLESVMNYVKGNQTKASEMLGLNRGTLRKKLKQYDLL", "assay": "EMSA with LF2 competition", "conditions": "0.46 uM Fis, competed by LF2 less efficiently than Fis-nuo2-mut DNA, comparison with wild type not stated for EMSA; EMSA: 24 mM Tris/HCl pH 7.5, 50 mM KCl, 10 mM MgCl2, 1 mM CaCl2, 0.1 mM EDTA, 5% glycerol, 0.05 ug/ul BSA, 0.05 ug/ul salmon sperm DNA, 20 ul, 20 min room temperature; recombinant protein; protein details: His-tag; label: 32P (5'); probe letters rebuilt from the primers and the genome", "note": "Construct, isoform or probe ends are uncertain for at least one entry. Weaker means in comparison with the reference protein, sequence or condition of that experiment. At least one verdict rests on a figure or table, not on a statement of the authors. Where a protein sequence is shown, tags need not be part of it.", "data": [{"sequence": "GCGCGTAATGCCCGAATTTCAAGGCTCTCAGCCAGTTACGAACGTTTTTTGTACTTAATCCTACGAATAAGGTTGCGAGTCGAATTTTACTTGCACCAGGTTTACCCATAAAATCAGCGCGATTGATCCGGCTGCGACATTTGGTCACTG (double strand) [Fis-nuo1-mut-Fis-nuo2]", "values": [{"measurement": "binding result", "value": "binds more weakly"}]}]}
